Some of the results follow.

The chains behind the UniProt entries cited, without tags or fusion partners. Where a name states a change or a piece, a line headed by the entry shows the natural chain unless it says otherwise.
UniProt Q4L180: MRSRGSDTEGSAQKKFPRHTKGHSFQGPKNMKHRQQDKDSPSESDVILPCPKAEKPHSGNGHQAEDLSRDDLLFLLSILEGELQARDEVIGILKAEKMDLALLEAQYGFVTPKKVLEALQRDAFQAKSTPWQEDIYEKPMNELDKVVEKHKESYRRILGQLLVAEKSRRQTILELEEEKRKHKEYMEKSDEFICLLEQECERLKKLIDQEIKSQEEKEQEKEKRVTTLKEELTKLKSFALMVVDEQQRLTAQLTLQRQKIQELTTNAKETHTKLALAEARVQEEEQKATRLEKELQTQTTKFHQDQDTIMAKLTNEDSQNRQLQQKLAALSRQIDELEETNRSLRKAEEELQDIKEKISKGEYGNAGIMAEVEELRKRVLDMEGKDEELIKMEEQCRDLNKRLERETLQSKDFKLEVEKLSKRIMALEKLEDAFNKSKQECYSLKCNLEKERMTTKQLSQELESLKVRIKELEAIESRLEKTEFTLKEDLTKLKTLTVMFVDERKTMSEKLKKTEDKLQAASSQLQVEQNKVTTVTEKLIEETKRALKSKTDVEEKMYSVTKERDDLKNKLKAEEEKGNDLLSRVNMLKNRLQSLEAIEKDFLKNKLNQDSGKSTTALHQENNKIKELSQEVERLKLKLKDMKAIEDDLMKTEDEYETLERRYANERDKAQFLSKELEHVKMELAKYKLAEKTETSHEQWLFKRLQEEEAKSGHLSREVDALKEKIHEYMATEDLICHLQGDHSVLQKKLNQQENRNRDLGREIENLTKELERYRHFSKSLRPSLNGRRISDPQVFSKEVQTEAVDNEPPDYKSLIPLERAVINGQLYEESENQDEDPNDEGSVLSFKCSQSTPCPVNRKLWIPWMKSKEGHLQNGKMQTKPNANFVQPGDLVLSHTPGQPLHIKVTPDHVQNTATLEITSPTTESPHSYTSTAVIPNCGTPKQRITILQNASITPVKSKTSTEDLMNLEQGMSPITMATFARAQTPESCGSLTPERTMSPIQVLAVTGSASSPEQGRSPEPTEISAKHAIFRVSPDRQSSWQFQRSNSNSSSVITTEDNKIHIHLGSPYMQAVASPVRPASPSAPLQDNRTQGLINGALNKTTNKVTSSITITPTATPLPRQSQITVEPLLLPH
UniProt P15407: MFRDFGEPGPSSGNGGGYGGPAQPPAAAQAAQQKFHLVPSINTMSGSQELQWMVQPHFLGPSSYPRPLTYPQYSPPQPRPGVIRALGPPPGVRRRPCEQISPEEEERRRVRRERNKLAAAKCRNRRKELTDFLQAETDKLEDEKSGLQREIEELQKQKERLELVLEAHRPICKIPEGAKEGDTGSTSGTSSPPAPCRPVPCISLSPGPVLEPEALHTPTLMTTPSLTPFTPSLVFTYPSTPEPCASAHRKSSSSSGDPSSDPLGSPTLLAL
UniProt Q86XK2: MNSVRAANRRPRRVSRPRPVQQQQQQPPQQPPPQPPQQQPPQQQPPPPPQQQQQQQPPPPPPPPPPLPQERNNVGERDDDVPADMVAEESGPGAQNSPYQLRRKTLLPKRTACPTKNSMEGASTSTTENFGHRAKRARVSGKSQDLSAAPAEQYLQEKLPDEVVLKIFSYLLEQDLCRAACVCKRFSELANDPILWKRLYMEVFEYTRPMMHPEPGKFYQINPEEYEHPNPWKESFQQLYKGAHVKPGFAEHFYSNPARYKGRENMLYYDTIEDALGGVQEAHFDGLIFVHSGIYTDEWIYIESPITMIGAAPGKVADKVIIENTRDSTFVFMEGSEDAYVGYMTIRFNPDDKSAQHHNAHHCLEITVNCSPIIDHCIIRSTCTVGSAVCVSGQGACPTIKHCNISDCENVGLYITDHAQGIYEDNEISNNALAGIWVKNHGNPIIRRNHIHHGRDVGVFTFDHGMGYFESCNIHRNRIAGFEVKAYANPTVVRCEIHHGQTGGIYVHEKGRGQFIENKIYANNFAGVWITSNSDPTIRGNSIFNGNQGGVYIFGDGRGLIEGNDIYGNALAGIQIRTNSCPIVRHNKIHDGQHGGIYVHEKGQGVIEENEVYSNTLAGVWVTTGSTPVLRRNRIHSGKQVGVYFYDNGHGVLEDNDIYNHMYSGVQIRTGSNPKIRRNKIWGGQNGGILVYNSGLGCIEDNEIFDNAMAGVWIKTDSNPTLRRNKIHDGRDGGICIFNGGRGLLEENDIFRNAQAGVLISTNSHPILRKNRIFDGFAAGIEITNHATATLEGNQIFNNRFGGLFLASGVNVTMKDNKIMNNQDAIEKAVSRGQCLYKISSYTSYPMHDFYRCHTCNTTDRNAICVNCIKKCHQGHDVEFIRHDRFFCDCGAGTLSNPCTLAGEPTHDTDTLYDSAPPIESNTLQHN
UniProt Q9NVF7: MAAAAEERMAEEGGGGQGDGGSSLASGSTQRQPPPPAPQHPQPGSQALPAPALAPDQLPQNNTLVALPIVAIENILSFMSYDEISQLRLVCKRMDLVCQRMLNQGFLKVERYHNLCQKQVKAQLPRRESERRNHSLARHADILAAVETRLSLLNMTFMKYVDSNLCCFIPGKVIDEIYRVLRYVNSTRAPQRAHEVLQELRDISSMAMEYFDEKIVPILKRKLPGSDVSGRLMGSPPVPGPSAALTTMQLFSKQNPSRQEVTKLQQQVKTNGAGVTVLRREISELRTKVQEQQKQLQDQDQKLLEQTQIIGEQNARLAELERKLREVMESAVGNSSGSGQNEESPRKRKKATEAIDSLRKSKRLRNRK
UniProt Q96PY5, whole entry, looked up: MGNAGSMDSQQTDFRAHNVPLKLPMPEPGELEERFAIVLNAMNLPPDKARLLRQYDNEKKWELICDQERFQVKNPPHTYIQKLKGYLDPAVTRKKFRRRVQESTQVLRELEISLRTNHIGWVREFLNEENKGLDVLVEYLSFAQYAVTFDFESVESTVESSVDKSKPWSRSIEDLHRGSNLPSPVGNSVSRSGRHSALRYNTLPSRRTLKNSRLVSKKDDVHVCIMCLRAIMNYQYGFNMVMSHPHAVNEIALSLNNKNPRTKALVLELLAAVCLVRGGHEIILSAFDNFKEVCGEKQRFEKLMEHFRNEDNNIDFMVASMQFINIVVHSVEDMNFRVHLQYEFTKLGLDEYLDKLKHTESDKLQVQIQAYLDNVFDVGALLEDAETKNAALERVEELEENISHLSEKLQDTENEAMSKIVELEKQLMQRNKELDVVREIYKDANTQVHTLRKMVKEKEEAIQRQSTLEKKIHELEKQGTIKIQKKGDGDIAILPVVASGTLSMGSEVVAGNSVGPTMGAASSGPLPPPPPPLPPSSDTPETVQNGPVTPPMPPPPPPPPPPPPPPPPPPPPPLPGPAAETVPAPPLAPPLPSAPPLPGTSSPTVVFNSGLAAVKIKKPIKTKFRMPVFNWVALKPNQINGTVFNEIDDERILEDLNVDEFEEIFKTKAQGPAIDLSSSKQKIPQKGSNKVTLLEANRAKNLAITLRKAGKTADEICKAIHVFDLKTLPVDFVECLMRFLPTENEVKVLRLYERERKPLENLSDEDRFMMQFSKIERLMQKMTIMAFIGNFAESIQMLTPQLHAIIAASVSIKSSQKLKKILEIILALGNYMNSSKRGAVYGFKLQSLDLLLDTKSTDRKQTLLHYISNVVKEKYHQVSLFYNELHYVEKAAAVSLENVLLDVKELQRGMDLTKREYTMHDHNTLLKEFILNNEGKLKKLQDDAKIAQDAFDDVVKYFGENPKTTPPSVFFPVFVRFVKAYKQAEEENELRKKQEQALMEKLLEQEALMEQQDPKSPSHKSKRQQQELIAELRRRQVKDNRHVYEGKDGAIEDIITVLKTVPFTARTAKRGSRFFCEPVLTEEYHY
UniProt Q9HB96: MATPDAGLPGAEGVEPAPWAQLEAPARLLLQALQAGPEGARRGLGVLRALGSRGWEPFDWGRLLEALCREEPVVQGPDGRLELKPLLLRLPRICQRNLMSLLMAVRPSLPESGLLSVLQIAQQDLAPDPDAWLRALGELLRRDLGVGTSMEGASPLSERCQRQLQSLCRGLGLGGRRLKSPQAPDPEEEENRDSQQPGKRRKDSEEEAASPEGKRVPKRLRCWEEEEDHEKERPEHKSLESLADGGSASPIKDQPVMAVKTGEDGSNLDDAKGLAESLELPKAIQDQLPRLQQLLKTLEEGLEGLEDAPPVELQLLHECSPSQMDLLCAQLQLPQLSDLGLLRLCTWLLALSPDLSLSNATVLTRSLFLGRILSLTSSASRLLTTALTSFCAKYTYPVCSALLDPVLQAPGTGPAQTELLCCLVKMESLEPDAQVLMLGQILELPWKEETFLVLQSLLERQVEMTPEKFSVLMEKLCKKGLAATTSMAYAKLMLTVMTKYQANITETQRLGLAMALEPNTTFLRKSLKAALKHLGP
UniProt O94868: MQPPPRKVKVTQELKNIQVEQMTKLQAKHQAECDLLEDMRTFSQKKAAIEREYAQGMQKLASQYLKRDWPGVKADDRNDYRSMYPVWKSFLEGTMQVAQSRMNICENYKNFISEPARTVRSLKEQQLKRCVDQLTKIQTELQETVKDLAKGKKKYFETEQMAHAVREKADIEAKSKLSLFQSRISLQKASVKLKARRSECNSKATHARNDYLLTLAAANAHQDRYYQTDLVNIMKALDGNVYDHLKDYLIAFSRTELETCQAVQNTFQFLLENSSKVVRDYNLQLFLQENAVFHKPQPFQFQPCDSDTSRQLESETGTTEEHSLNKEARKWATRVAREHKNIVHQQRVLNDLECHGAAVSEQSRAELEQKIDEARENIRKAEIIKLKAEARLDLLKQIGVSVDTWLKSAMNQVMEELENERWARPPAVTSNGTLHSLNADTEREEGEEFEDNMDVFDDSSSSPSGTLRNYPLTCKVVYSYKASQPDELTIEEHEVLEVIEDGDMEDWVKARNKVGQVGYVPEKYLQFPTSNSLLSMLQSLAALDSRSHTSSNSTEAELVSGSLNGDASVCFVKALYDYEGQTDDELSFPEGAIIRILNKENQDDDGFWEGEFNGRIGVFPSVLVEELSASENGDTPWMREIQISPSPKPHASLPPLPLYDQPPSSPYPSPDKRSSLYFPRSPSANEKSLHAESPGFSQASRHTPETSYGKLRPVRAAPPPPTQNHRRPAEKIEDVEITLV
UniProt Q96AY3, whole entry, looked up: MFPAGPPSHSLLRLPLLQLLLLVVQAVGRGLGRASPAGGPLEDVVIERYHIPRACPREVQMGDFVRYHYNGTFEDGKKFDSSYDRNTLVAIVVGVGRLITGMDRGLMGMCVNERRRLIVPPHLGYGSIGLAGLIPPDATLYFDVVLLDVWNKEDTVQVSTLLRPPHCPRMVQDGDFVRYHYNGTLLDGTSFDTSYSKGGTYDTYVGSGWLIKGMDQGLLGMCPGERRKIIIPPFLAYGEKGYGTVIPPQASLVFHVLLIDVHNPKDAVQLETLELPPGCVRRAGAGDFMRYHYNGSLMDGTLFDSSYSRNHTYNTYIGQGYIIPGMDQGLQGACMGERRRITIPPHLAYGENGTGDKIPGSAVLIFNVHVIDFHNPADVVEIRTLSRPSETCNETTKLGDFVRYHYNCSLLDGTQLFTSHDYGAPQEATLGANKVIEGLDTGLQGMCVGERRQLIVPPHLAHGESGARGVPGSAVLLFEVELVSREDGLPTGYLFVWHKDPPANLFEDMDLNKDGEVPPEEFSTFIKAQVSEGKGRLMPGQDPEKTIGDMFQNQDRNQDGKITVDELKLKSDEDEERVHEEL
UniProt P31994: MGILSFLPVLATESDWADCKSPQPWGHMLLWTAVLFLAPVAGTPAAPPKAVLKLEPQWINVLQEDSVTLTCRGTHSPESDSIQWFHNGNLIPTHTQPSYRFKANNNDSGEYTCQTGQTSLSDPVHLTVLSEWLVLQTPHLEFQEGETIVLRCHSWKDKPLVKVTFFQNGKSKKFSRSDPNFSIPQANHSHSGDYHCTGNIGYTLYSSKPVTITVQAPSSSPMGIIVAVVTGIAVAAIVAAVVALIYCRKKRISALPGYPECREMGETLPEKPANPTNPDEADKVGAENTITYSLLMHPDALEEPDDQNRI
UniProt P01100, whole entry, looked up: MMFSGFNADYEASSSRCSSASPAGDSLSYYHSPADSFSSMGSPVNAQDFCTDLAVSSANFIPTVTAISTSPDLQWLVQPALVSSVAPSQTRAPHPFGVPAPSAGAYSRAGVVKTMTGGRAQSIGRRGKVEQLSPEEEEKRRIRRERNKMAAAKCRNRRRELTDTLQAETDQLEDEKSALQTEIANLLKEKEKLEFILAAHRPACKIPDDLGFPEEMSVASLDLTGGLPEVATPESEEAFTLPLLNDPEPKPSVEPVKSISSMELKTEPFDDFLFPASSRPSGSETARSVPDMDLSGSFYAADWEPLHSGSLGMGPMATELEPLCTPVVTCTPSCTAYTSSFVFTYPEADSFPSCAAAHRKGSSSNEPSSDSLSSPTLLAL

Compound in one assay: CCCS(=O)(=O)Nc1ccc(F)c(C(=O)c2c[nH]c3ncc(Cl)cc23)c1F
In words: log2 fold change, soluble protein after heating vs DMSO (PISA); higher = thermal stabilisation; K562 lysate, 10 uM; active = over 0.2 and 3.5 SD of the protein, either way, in both replicates (recomputed). Put shortly:
(§1)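 Thermal stability, expressed as log-two fold change relative to solvent controls, is given from duplicates. Crude K562 extract in PBS pH 7.4 with 1 mM MgCl2, at 1 mg/mL protein, was treated with 10 μM compound for 30 min and heated in aliquots for 3 min across 48°C-58°C. After pooling, adjustment to 0.5% NP-40 at 4°C and centrifugation at 21,000xg for 90 min, supernatant protein was measured by TMTpro 16plex LC-MS/MS with channel sums equalised.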
As for FILIP1L (UniProt Q4L180), the log2 fold change is inactive: -0.114.

Turning to FER isoform 3 (UniProt P16591), the log2 fold change is inactive: 0.089.

Turning to FOSL1 (UniProt P15407), the log2 fold change is inactive: -0.058.

FASTKD3 (UniProt Q14CZ7): the log2 fold change is inactive: 0.301.

FBXO11 isoform 5 (UniProt Q86XK2): the log2 fold change is inactive: 0.

Turning to FBXO28 (UniProt Q9NVF7), the log2 fold change is inactive: -0.09.

For FMR1 isoform 9 (UniProt Q06787), the log2 fold change was inactive: -0.013.

FAT1 (UniProt Q14517): the log2 fold change is inactive: 0.022.

In the case of FAXDC2 (UniProt Q96IV6), the log2 fold change was inactive: 0.078.

With FDPS, A0A087WVN4, the log2 fold change is inactive: -0.013.

Turning to FIP1L1 isoform 3 (UniProt Q6UN15), the log2 fold change was inactive: -0.005.

Consider FASN, A0A0U1RRG3, for which the log2 fold change is inactive: 0.111.

For FMNL2 isoform 3 (UniProt Q96PY5), the log2 fold change is inactive: 0.022.

As to FANCE (UniProt Q9HB96), the log2 fold change was inactive: 0.008.

As for FANCC (UniProt Q00597), the log2 fold change was inactive: 0.038.

Consider FCHSD2 (UniProt O94868), for which the log2 fold change is inactive: 0.139.

On to FLYWCH1 isoform 3 (UniProt Q4VC44), for which the log2 fold change is inactive: 0.009.

Compound in another assay: CCN(CCCOc1ccc2c(Nc3cc(CC(=O)Nc4cccc(F)c4)[nH]n3)ncnc2c1)CCOP(=O)(O)O [barasertib]
Described as above. The method, boiled down: as §1
On to FBXO11 isoform 5 (UniProt Q86XK2), for which the log2 fold change is inactive: 0.022.

Consider FMR1 isoform 9 (UniProt Q06787), for which the log2 fold change is inactive: -0.177.

Take FBH1 isoform 2 (UniProt Q8NFZ0): the log2 fold change was inactive: 0.016.

FOXJ2 (UniProt Q9P0K8): the log2 fold change was inactive: -0.049.

Compound in another assay: CC[C@@H]1C(=O)N(C)c2cnc(Nc3ccc(C(=O)NC4CCN(C)CC4)cc3OC)nc2N1C1CCCC1
The assay is described as above. The method, boiled down: as §1
On to FILIP1L (UniProt Q4L180), for which the log2 fold change was inactive: -0.081.

Regarding FKBP10 (UniProt Q96AY3), the log2 fold change is inactive: -0.037.

Turning to FASTKD3 (UniProt Q14CZ7), the log2 fold change was inactive: -0.178.

For FAT1 (UniProt Q14517), the log2 fold change is inactive: 0.32.

For the target FAXDC2 (UniProt Q96IV6), the log2 fold change was inactive: 0.114.

As to FCGR2B (UniProt P31994), the log2 fold change is inactive: 0.224.

Turning to FIP1L1 isoform 3 (UniProt Q6UN15), the log2 fold change was inactive: 0.117.

For the target FBXL4 (UniProt Q9UKA2), the log2 fold change is inactive: 0.037.

Take FOS (UniProt P01100): the log2 fold change was inactive: 0.132.

With FOXJ2 (UniProt Q9P0K8), the log2 fold change was inactive: -0.149.
